Results from US5700799A, “Oxazolidinone antimicrobials containing substituted diazine moieties” (Pharmacia & Upjohn Company, priority 1996, dated 1997).

Test system: S. pyogenes UC 152
Test: Murine Assay procedure: in vivo antimicrobial activity, survival of infected mice (S. pyogenes UC 152)
Parameters: species or system S. pyogenes (infected female mice)
Conditions: Streptococcus pyogenes, UC152, sc, 144 h, control antibiotic, subcutaneous
Procedure: Antimicrobial activity was tested in vivo using the Murine Assay procedure. Groups of female mice (six mice of 18-20 grams each) were injected intraperitoneally with bacteria which were thawed just prior to use and suspended in brain heart infusion with 4% brewers yeast (Staphylococcus aureus) or brain heart infusion (Streptococcus species). Antibiotic treatment at six dose levels per drug was administered one hour and five hours after affection by either oral intubation or subcutaneous routes. Survival was observed daily for six days. ED50 values based on mortality ratios were calculated using probit analysis. The subject compounds were compared against well-known antimicrobial as controls.

## CCC[C@@H]1C[C@@H](C(=O)N[C@@H]([C@H]2O[C@H](SC)[C@H](O)[C@@H](O)[C@H]2O)[C@H](C)Cl)N(C)C1 [Clindamycin, reference compound]
  ED50: 2.6 mg/kg
